Results as given in patent publication US8383622B2 (priority 2007, dated 2013).
For at least one compound, name, drawing or mass did not settle the structure.

Test: log k′ (degree of lipophilic character) by gradient HPLC
Assay type: physicochemical
Settings: XTerra MS C18 column; acetonitrile/pH6.8 buffer gradient 5:95-95:5/20 min
Method: As to each compound, the measurement results of NMR or log k′ were disclosed.
log k′ is a value which means degree of the lipophilic character, and is calculated by the following formula. log k′=log(tR−t0)/t0 • tR: retention time of compound under gradient condition • t0: retention time of standard material not retained in column
XTerra MS C18 5 μm, 2.1×100 mm column (made by Waters) was used for measurement. The elution was a straight line inclination of acetonitrile/pH6.8 buffer (5:95˜95:5/20 min) at flow velocity 0.25 mL/min.

**Q.** For `CC(C)COc1c(C(=O)NC2C3CC4CC2CC(O)(C4)C3)cnn1C=CC(C)(C)NC(=O)COCc1ccccc1` (stereo not shown) [Compound I-77], which “log k′” value is on record?
**A.** The value was 0.926.
